Some of the results follow.

By UniProt entry, the sequences of proteins in these tests, tags left out.
UniProt Q0JBA9, entry or part of it: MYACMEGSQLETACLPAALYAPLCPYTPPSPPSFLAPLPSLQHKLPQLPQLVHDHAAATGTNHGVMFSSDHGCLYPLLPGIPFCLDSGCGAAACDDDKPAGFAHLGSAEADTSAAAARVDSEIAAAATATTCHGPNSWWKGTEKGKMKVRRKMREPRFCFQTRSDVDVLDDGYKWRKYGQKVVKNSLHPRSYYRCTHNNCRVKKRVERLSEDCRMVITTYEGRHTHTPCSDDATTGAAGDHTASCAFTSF

Among the data in article PMC7819943, “Rice protein-binding microarrays: a tool to detect cis-acting elements near promoter regions in rice” are binding signal values, retold here.

The target in this assay is OsWRKY34 (Oryza sativa, UniProt Q0JBA9 1-250). The experiment in a line: protein-binding microarray (RPBM); PBS, 2% BSA, 51.3 ng/ul salmon testes DNA, 50 uM zinc acetate, 200 nM TF, 25 C, 1 h; high values mean tight binding. To be noted: protein: recombinant; tags: N-terminal polyhistidine and DsRed monomer fusion (pET32a); label: CyDye5-dUTP incorporated in the synthesized complementary strand; 3' TTTTT single-stranded linker to array surface; dsDNA, one strand shown. The essentials:
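Binding signal is defined as the fluorescence intensity of each feature in arbitrary units, read on an Axon 4000B scanner. Transcription factors with N-terminal polyhistidine and DsRed fusions came from E. coli BL21-CodonPlus and were purified on Ni–NTA. They were incubated at 200 nM for 1 h at 25 °C on a custom Agilent array that had been made double-stranded with Cy5-dUTP, with 50 µM zinc acetate present, and the array was washed.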
On to “TGTTCTACCTTTTAGCAGGTTTGTTTGAGCCTGTATACATCGGAGTCACCTAGTGCAG”, for which the binding signal is 8090 fluorescence intensity (a.u.).
For “AATTGATCGCGGGCACGAGATGCGTCTCGTCGTCGTATTTCGGAGTCACCTAGTGCAG” the value was 8280 fluorescence intensity (a.u.).
Then “ATAGCTCACCTTGTTTTACGTATCTTCTTAAACTTCTCTTCGGAGTCACCTAGTGCAG”, with 10800 fluorescence intensity (a.u.); and “ACTAGAATGCTATTATTATGTTTAGGTATGTATGTTATATCGGAGTCACCTAGTGCAG”, with 8200 fluorescence intensity (a.u.).
With “TTCCTCTCTCCATGTGTGTTCAACAGAGCATGCTTCTCATCGGAGTCACCTAGTGCAG”, the binding signal was 8400 fluorescence intensity (a.u.).
As to “TTTCCATCCGTTTTCGAGCCGTTTTCATCCCTATTTGGTACGGAGTCACCTAGTGCAG”, the binding signal was 9000 fluorescence intensity (a.u.).
Regarding “CCTAAACACCAAGGCACTCTCTAGGCAAGCATCCCACCTTCGGAGTCACCTAGTGCAG”, the binding signal was 8210 fluorescence intensity (a.u.).
In the case of “TCGTCGTCGTCTCGTCGTTTCCACAATCAATTTGACGTCGCGGAGTCACCTAGTGCAG”, the binding signal was 8130 fluorescence intensity (a.u.).
For “TATCGTCATACCACTTATTGTGCTTCTTGTAAGTGTCACACGGAGTCACCTAGTGCAG” the value was 10500 fluorescence intensity (a.u.); for “CTGCTATTTCTTCGCTTGTTTCTCATGCGTGTTTACAAGACGGAGTCACCTAGTGCAG”, 8740 fluorescence intensity (a.u.).
For “AAATTCCAACTCCGTATAGTATCAAGTACAGCAATTTCTACGGAGTCACCTAGTGCAG” the value was 8300 fluorescence intensity (a.u.); for “TGTTCCTTTCTTTTCTGTCACATTATGTGCACAATATTTTCGGAGTCACCTAGTGCAG”, 10500 fluorescence intensity (a.u.); for “CCGGTCTCTGTCTTTTTAGCGTGTATTAGACGGCTCACTCCGGAGTCACCTAGTGCAG”, 9350 fluorescence intensity (a.u.).
Then “TCCACGTTCACTTATCAGCCCCAACGTCTTAGCTTCCGATCGGAGTCACCTAGTGCAG”, with 9260 fluorescence intensity (a.u.); and “TTAACCCTTACGGGTTTTTGCTAGGCTCCTTTTTTTTTTACGGAGTCACCTAGTGCAG”, with 9610 fluorescence intensity (a.u.); and “CTAGTATAACGGTGATCTCTCCTAGGTTGCTTTTTTTTTTCGGAGTCACCTAGTGCAG”, with 12300 fluorescence intensity (a.u.).
Turning to “CCCGACGACTTGACCCGTTGACCAATAAGACACCTTGAAGCGGAGTCACCTAGTGCAG”, the binding signal is 14400 fluorescence intensity (a.u.).
For “GGTAATGATATATTGGTTTATTTGTCTTCTTACCTGCCAACGGAGTCACCTAGTGCAG” the value was 9910 fluorescence intensity (a.u.).
For “TCTCGTATCTGCCCCATTAATCAATTCCCACGGCCGTACTCGGAGTCACCTAGTGCAG” the value was 10800 fluorescence intensity (a.u.); for “AACAGAAGAGTAGTTGACTTTAGCCACACTCCGAAGCTATCGGAGTCACCTAGTGCAG”, 8390 fluorescence intensity (a.u.); for “CAATCCGAACCGTTTCGCGCCATCCGATCGAGGCCGCCACCGGAGTCACCTAGTGCAG”, 9050 fluorescence intensity (a.u.).
Then “GTTTGTCGTAGTAGTTTATTTTTGACACCGGCTTTCAAATCGGAGTCACCTAGTGCAG”, with 9880 fluorescence intensity (a.u.); and “CCAAGCCACCACGCCACCCAAACCGCGATTTCTGATCGATCGGAGTCACCTAGTGCAG”, with 8300 fluorescence intensity (a.u.).
“CGCTCGTCCCCATTGTTGTCGTTGCTAGTGGTCATTAAAACGGAGTCACCTAGTGCAG”: the binding signal is 8730 fluorescence intensity (a.u.).
Then “TCCGCTACCAACCGCTTCCTTTTCCTTCTGCTGCTGCTGCCGGAGTCACCTAGTGCAG”, with 9080 fluorescence intensity (a.u.); and “CTTCACAACTCACCGAATCTACGGTTCAGATTGCTCGCAACGGAGTCACCTAGTGCAG”, with 8850 fluorescence intensity (a.u.).
With “TGTGAATGGATTAGGGTGGTTGATGCCATACTACGGCCGCCGGAGTCACCTAGTGCAG”, the binding signal is 8700 fluorescence intensity (a.u.).
Then “AAACAACTTACAATTCATCCAAGTTCTTTCCATCTGTTACCGGAGTCACCTAGTGCAG”, with 10500 fluorescence intensity (a.u.).
Then “TGTGGGTGGGGTTATTTTTTCTTCGTTTTCCTATTTACGACGGAGTCACCTAGTGCAG”, with 15700 fluorescence intensity (a.u.); and “TCGTTCTCGATCTAGCCAGCTCATCAATCTTTTTTTCTCTCGGAGTCACCTAGTGCAG”, with 10300 fluorescence intensity (a.u.).
Then “AATTGTCTTTGATCTCTCCCATTTCCATTTGCCTAATCCACGGAGTCACCTAGTGCAG”, with 9080 fluorescence intensity (a.u.).
“CTGGGTTTTATCATATCTGACCGTATGAGTAGTTGGCATTCGGAGTCACCTAGTGCAG”: the binding signal was 8410 fluorescence intensity (a.u.).
Then “CACCACTCCATCTCCTTAATTGCACTTCCATTTCACCTCACGGAGTCACCTAGTGCAG”, with 11200 fluorescence intensity (a.u.); and “CCCCAATCCACACACCATACATAATTACATACTACCAGCTCGGAGTCACCTAGTGCAG”, with 8420 fluorescence intensity (a.u.); and “GGACAGAGGGATAAGTGGTTTTAAGGTGATGCATCACATACGGAGTCACCTAGTGCAG”, with 8200 fluorescence intensity (a.u.).
Consider “CTCCTCCACGTGACCCGCGCCACCACCACCACCACCACCGCGGAGTCACCTAGTGCAG”, for which the binding signal is 8920 fluorescence intensity (a.u.).
For “CCTTCACTCTCCTCTCCATCTCGTTTTTTTTTTTCTTTTTCGGAGTCACCTAGTGCAG” the value was 8410 fluorescence intensity (a.u.).
Then “TCGTCCATACGTTTCTCAATTGTTAAACGGTGTGTTTTTTCGGAGTCACCTAGTGCAG”, with 9140 fluorescence intensity (a.u.).
Then “AAGTTATTATAGGCTTATGGCATTCCTTCATTTCTATATTCGGAGTCACCTAGTGCAG”, with 9490 fluorescence intensity (a.u.).
In the case of “GCTCGGTGTGGCGATCTCACAGCCGCATATCGCATTTCACCGGAGTCACCTAGTGCAG”, the binding signal was 8680 fluorescence intensity (a.u.).
On to “TTTTGGGATTTCTCGGGTATATTCTATAGATTTTCATTTTCGGAGTCACCTAGTGCAG”, for which the binding signal is 13100 fluorescence intensity (a.u.).
For “TCGACATCTACGCTTATCATTTCTCCCTCTACTATTGCTGCGGAGTCACCTAGTGCAG” the value was 8530 fluorescence intensity (a.u.).
